Measurements reported in PubChem BioAssay AID624246 (National Center for Advancing Translational Sciences (NCATS), 2012).
In all, about 370,000 compounds went through this assay and about 100 (0.027%) were called active. The shares of active, inactive and inconclusive entries below differ from those in the screen. The call rests on the fitted dose curve; in most records, active means well fitted inhibition curve with a large enough effect in the polarisation, with a control signal flat; inconclusive means small, poorly fitted or top-dose-only effect, or effect the other way, or a change in a side signal; inactive means no such curve, though single readings can be large or run the other way; the % refers to the polarisation. A potency beside an inconclusive call is a rough fit, not a confirmed value. “Side channel” marks fits to a control or component signal instead of the main read-out.
Potency means the concentration at half of the fitted maximal effect.

By UniProt entry, the sequences of proteins in these tests, tags left out.
UniProt P11308, whole entry, looked up: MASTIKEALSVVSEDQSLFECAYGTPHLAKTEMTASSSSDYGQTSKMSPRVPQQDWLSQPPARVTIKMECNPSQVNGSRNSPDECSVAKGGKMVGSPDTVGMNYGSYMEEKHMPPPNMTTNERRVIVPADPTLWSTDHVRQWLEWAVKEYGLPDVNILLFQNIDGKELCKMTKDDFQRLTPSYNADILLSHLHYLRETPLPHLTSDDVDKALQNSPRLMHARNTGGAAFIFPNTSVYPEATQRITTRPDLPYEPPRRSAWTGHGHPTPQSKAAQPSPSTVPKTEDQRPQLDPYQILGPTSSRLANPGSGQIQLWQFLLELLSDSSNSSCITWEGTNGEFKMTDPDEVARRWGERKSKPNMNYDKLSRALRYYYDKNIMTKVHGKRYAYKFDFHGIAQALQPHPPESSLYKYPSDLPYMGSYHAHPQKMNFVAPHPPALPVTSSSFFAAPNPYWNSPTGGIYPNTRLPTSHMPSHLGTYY

The compounds below were run against Transcriptional regulator ERG (Homo sapiens) (UniProt P11308) (assay: qHTS for Small Molecule Inhibitors of the ERG Ets/DNA interaction). Conditions: fluorescence polarization, His-ERG Ets domain / labelled DNA; series mostly up to 76.9 µM.
Method in brief: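 His-tagged ERG Ets domain (1 uM in the protein solution; 300mM KCl, 50mM Tris-HCl, 1mM EDTA, 1mM DTT, pH 7.5) received compound, then a probe mix of 5 nM fluorescein-DNA and 100nM Texas-615-DNA. Fluorescence polarization was read for both dyes.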
`CC(CN1CCOCC1)(NS(=O)(=O)c1ccccc1)c1ccccc1` (centres undefined) was tested, and the Potency was inconclusive: 7.08 µM [inhibitor, partial curve, poor fit].
For `CC(=O)NNc1ncnc2c1cnn2-c1ccc(C)cc1`, the Potency was inconclusive: 10 µM [quencher, side channel, full curve].
`CC(/C=C1\SC(=S)N(CCCC(=O)Nc2ccc(C(=O)O)cc2)C1=O)=C\c1ccccc1` was tested, and the Potency was “inactive”.
For `Nc1nnc(-c2ccncc2)s1`, the Potency was “inactive”.
For `COc1ccc(/C=C/C(=O)NC(=S)Nc2ccc(S(=O)(=O)Nc3nccnc3OC)cc2)cc1`, the Potency was “inactive”.
With `COC(=O)Cn1c(=NC(=O)C2COc3ccccc3O2)sc2cc(S(N)(=O)=O)ccc21` (centres undefined) the Potency was inconclusive: 31.6 µM [inhibitor, single point].
`N=C1SCC(=O)N1c1ccccc1Cl` was tested, and the Potency was inconclusive: 25.1 µM [inhibitor, partial curve].
For `O=C1CCCC(O)=C1N=Nc1c(Cl)cc(Cl)cc1Cl`, the Potency was inconclusive: 35.5 µM [fluorescent, side channel, single point].
In the case of `C[N+](C)(C)CCCCCC[N+](C)(C)C`, the Potency is reported as inconclusive: 3.55 µM [inhibitor, single point].
For `Cc1cccc([N+](=O)[O-])c1C(=O)O`, the Potency was inconclusive: 35.5 µM [inhibitor, single point].
`Cc1csc(=O)n1CCC(=O)OCC(=O)Nc1ncc(Cl)cc1Cl` was tested, and the Potency was inconclusive: 5.62 µM [inhibitor, single point].
`Brc1ccc2nc(SCCOc3ccccc3)[nH]c2c1` was tested, and the Potency was “inactive”.
In the case of `COc1cc(S(C)=O)ccc1-c1nc2ncccc2[nH]1` (centres undefined), the Potency is reported as inconclusive: 50.1 µM [inhibitor, single point].
In the case of `Cn1c(CNC(=O)c2cccs2)n[nH]c1=S`, the Potency is reported as inconclusive: 1.26 µM [inhibitor, partial curve, poor fit].
With `O=C(NC1CCCCC1)C(c1ccc(O)cc1)N(C(=O)c1cnccn1)c1cccc(F)c1` (centres undefined) the Potency was inconclusive: 11.2 µM [inhibitor, single point].
`CCOC(=O)c1cnc2ccc(OC)cc2c1Nc1ccc(N2CCN(C)CC2)cc1` was tested, and the Potency was inconclusive: 35.5 µM [inhibitor, single point].
For `Cc1cc(C(C)(C)C)c(O)c(C)c1CC1=NCCN1`, the Potency was inconclusive: 7.08 µM [inhibitor, full curve].
For `CCc1cccc(C)c1NC(=O)c1cn2c3c(ccc(Cl)c3c1=O)OC(C)C2` (centres undefined), the Potency was “inactive”.
In the case of `O=C(CCN1C(=O)C2C3C=CC(C3)C2C1=O)Nc1nccs1` (centres undefined), the Potency is reported as “inactive”.
For `Nc1nc2c(ncn2[C@H]2C[C@H](O)[C@@H](CO)O2)c(=O)[nH]1`, the Potency was inconclusive: 7.08 µM [inhibitor, single point].
`COC(=O)N/N=C/c1cccs1` was tested, and the Potency was inconclusive: 56.2 µM [inhibitor, partial curve, poor fit].
In the case of `Cc1ccc(-c2csc(=Nc3ccc(F)cc3)n2Cc2ccc3c(c2)OCO3)cc1C`, the Potency is reported as inconclusive: 7.94 µM [quencher, side channel, full curve, poor fit].
For `Cc1cc(-c2ccccc2)n[nH]1`, the Potency was “inactive”.
In the case of `Cc1nc(-c2ccc(S(=O)(=O)Nc3ccc(S(N)(=O)=O)cc3)cc2)co1`, the Potency is reported as inconclusive: 50.1 µM [inhibitor, single point].
With `CCCN1C[C@H](CSC)C[C@@H]2c3cccc4[nH]cc(c34)C[C@H]21` the Potency was inconclusive: 8.91 µM [inhibitor, single point].
With `O=c1[nH]c2cc(F)ccc2c2ccc(F)cc12` the Potency was inconclusive: 11.2 µM [inhibitor, single point].
For `CCN(CC)c1ccc(/C=C2\C(=O)N(c3nnc(C)c(=O)[nH]3)N=C2C)cc1`, the Potency was “inactive”.
With `Cc1cc(/C=C2\SC(=S)NC2=O)c(C)[nH]1` the Potency was “inactive”.
For `O=C(NC1CCSc2ccccc21)c1cc([N+](=O)[O-])ccc1N1CCOCC1` (centres undefined), the Potency was inconclusive: 50.1 µM [inhibitor, single point].
In the case of `CN(C)c1ccc(N2C(=O)CSC2=S)cc1`, the Potency is reported as inconclusive: 11.2 µM [fluorescent, side channel, partial curve].
`Cc1ccc(NC(=O)CCc2ccc(S(=O)(=O)N3CCOCC3)cc2)c(Cl)c1` was tested, and the Potency was inconclusive: 35.5 µM [inhibitor, partial curve, poor fit].
For `Oc1ccc(/C=N/N2CCN(c3ccccn3)CC2)cc1`, the Potency was “inactive”.
With `Cc1ccc(S(=O)(=O)NCc2ccc3c(c2)cc(C)n3C)cc1` the Potency was active: 7.08 µM.
In the case of `Nc1cc(C(=O)OCC(=O)N2CCOCC2)ccc1Cl`, the Potency is reported as “inactive”.
`O=c1c2c(-c3ccc(Cl)cc3)ccnc2[nH]n1-c1ccccc1` was tested, and the Potency was inconclusive: 11.2 µM [quencher, side channel, single point].
`O=C(c1ccc2c(c1)N(Cc1ccc(F)cc1)C(=O)c1ccccc1S2(=O)=O)N1CCCCCC1` was tested, and the Potency was inconclusive: 1 µM [quencher, side channel, full curve].
With `CN(C)C(=O)c1ccc(NC(=O)COc2ccc([N+](=O)[O-])cc2)cc1` the Potency was inconclusive: 50.1 µM [inhibitor, single point].
`N#Cc1ccccc1Sc1ccccc1C(=O)OCC(N)=O` was tested, and the Potency was inconclusive: 56.2 µM [quencher, side channel, single point].
`Cc1cc2cc3c(cc2nc1SCC(=O)N1CCCC1)OCCO3` was tested, and the Potency was “inactive”.
In the case of `Cc1ccccc1OCc1nnc(SCC(=O)Nc2ccc(N3CCOCC3)c(Cl)c2)n1C`, the Potency is reported as inconclusive: 100 µM [inhibitor, single point].
In the case of `C#CCn1c(CCNC(=O)c2ccco2)nc2ccccc21`, the Potency is reported as inconclusive: 7.94 µM [inhibitor, single point].
In the case of `CCOC(=O)C[n+]1c(C)sc2ccc(OC)cc21`, the Potency is reported as “inactive”.
In the case of `C/C(=N\NC(=O)c1ccc(CSc2nc(C)cc(C)n2)cc1)c1ccco1`, the Potency is reported as inconclusive: 1.12 µM [inhibitor, partial curve, poor fit].
In the case of `CCN(CC)c1ccc(/C=C2\SC(=O)N(C(C)C)C2=O)o1`, the Potency is reported as “inactive”.
`Cc1cc2c(NC(=O)Nc3ccc(C(F)(F)F)cc3)cccc2nn1` was tested, and the Potency was inconclusive: 50.1 µM [inhibitor, single point].
With `N#Cc1c(NC(=O)C2CC(c3ccccc3Cl)=NO2)sc2c1CCC2` (centres undefined) the Potency was “inactive”.
In the case of `Cc1noc(C)c1CSCC(=O)Nc1cc(S(=O)(=O)N2CCOCC2)ccc1OC(C)C`, the Potency is reported as inconclusive: 28.2 µM [inhibitor, single point].
In the case of `Fc1cccc(NC(=S)N2CCN(c3ccccn3)CC2)c1`, the Potency is reported as inconclusive: 17.8 µM [inhibitor, partial curve, poor fit].
For `Cc1onc(-c2ccccc2Cl)c1C(=O)NCCn1c(C)cc2ccccc21`, the Potency was active: 31.6 µM.
In the case of `COc1ccc2c(c1)NC(=O)CC(c1ccccc1)=N2`, the Potency is reported as “inactive”.
For `CCN(CC)C(=O)C1CC(=O)OC12CCCCC2` (centres undefined), the Potency was inconclusive: 4.47 µM [fluorescent, side channel, full curve, poor fit].
With `CC(=O)N1CCN(c2nnc(-c3ccccc3)c3ccccc23)CC1` the Potency was inconclusive: 3.55 µM [inhibitor, partial curve, poor fit].
In the case of `COCCNC(=O)CSc1nc2ccccc2c(=O)n1-c1cccc(OC)c1`, the Potency is reported as inconclusive: 17.8 µM [inhibitor, partial curve, poor fit].
With `CCCCN(CC)CCCNC(=S)Nc1ccc2nc(N3CCN(C)CC3)cc(C)c2c1` the Potency was inconclusive: 11.2 µM [inhibitor, single point].
For `CCc1nn2c(=O)cc(CSCC(=O)Nc3ccccc3F)nc2s1`, the Potency was inconclusive: 50.1 µM [inhibitor, single point].
`CCOc1cccc(NC(=O)c2sc3nc(-c4ccc(F)cc4)ccc3c2N)c1` was tested, and the Potency was “inactive”.
With `Cc1cc(C)c(NC(=O)Cn2ncc3ccccc32)c(C)c1` the Potency was inconclusive: 35.5 µM [inhibitor, partial curve, poor fit].
In the case of `Cc1ccc(NC(=S)NC(=O)c2ccc(Br)o2)c(C)c1`, the Potency is reported as “inactive”.
For `Cc1cc2cc(CNC(=S)Nc3ccc(OC(F)(F)F)cc3)ccc2n1C`, the Potency was active: 20 µM.
With `Cc1ccc(Cl)cc1NC(=O)c1ccc(NC(=O)CCC(=O)O)cc1` the Potency was inconclusive: 15.8 µM [fluorescent, partial curve, poor fit].
With `O=C1NCCCC1C(=O)N/N=C/c1cccc(O)c1` (centres undefined) the Potency was inconclusive: 3.55 µM [inhibitor, partial curve, poor fit].
For `CCN1CCN(CCCNC(=O)C2CCN(c3nnc(-n4cccc4)s3)CC2)CC1`, the Potency was inconclusive: 44.7 µM [inhibitor, single point].
For `COc1ccc(CCNc2ncnc3c2[nH]c2cc(OC)c(OC)cc23)cc1OC`, the Potency was inconclusive: 39.8 µM [quencher, side channel, partial curve, poor fit].
For `Nc1nnc(N2CCCCC2)s1`, the Potency was “inactive”.
`CCn1ccc2c(OCC(=O)Nc3ccc(C(C)=O)cc3)cccc2c1=O` was tested, and the Potency was inconclusive: 63.1 µM [inhibitor, single point].
For `COc1ccccc1CNC(=O)c1cc2c(-c3ccc(Cl)cc3)nn(C)c2s1`, the Potency was inconclusive: 44.7 µM [quencher, side channel, single point].
In the case of `CC(C)N=c1cc2n(-c3ccc(Cl)cc3)c3ccccc3nc-2cc1Nc1ccc(Cl)cc1`, the Potency is reported as inconclusive: 35.5 µM [inhibitor, single point].
For `CCN(CC)c1ccc(NC(=O)CN(C)S(=O)(=O)c2cccc3nsnc23)c(C)c1`, the Potency was inconclusive: 35.5 µM [quencher, side channel, single point].
In the case of `CCOc1ccc(NC(=O)CCc2nc3cccnc3n2Cc2ccc(OC)cc2)cc1`, the Potency is reported as inconclusive: 11.2 µM [quencher, side channel, single point].
